# Assay results: the supplement of paper PMC8858631
# Where a name gives a salt, the structure may show the parent alone. Some of the results follow. No stated cut-off is given here; in the data, active = 0.5 or less and inactive = the rest. Many values rest on one well or one pass, so single values are uncertain.
# System: SK-MEL-28
# Assay: EEF2K protein level normalised to actin (western blot) after treatment (ratio (EEF2K/Actin)); higher = more EEF2K protein remaining (less EEF2K suppression)
# Conditions: 5 µM; 24 h
row,SMILES,EEF2K protein level normalised to actin
1,CCCCCCNC(=O)n1cc(F)c(=O)[nH]c1=O [Carmofur],active: 0.48
2,C#Cc1cccc(Nc2ncnc3cc(OCCOC)c(OCCOC)cc23)c1 [Erlotinib],active: 0.48
3,Nc1nc(CC(=O)Nc2ccc(CCNC[C@H](O)c3ccccc3)cc2)cs1 [Mirabegron],inactive: 1.21
4,CONC(=O)Nc1ccc(-c2sc3c(c2CN(C)C)c(=O)n(-c2ccc(OC)nn2)c(=O)n3Cc2c(F)cccc2F)cc1 [Relugolix],inactive: 0.6
5,CC(=O)O[C@]1(C(C)=O)CC[C@H]2[C@@H]3C=C(Cl)C4=CC(=O)[C@@H]5C[C@@H]5[C@]4(C)[C@H]3CC[C@@]21C [Cyproterone Acetate],inactive: 1.43
6,COc1cccc2c1C(=O)c1c(O)c3c(c(O)c1C2=O)CC(O)(C(=O)CO)CC3OC1CC(N)C(O)C(C)O1 (stereo not drawn) [Doxorubicin (Adriamycin) HCl],inactive: 2.09
7,"O=C(CCCCCCC(=O)Nc1ccccc1)NO [Vorinostat (SAHA, MK0683)]",inactive: 0.79
8,COc1nc(N)nc2c1ncn2[C@@H]1O[C@H](CO)[C@@H](O)[C@@H]1O [Nelarabine],inactive: 4.32

# Fetched by structure from the entries so far:
row,SMILES,EEF2K protein level normalised to actin
6,COc1cccc2c1C(=O)c1c(O)c3c(c(O)c1C2=O)CC(O)(C(=O)CO)CC3OC1CC(N)C(O)C(C)O1 (stereo not drawn) [Doxorubicin (Adriamycin) HCl],inactive: 2.09
7,"O=C(CCCCCCC(=O)Nc1ccccc1)NO [Vorinostat (SAHA, MK0683)]",inactive: 0.79
